Assay results as given in PubChem BioAssay AID504834 (National Center for Advancing Translational Sciences (NCATS), 2011).
Among all 320,000 compounds or so, about 22,000 (6.9%) were called active. The inconclusive results got no clear call from the source; some entries with a clear call stand among them for comparison. The call rests on the fitted dose curve; in most records, active means well fitted inhibition curve with a large enough effect; inconclusive means small, poorly fitted or top-dose-only effect, or another doubt; inactive means no such curve, though single readings can be large or run the other way. Potencies of inconclusive entries are doubtful fits and often do not repeat.
Potency means the concentration at half of the fitted maximal effect.

Assay: Primary qHTS for delayed death inhibitors of the malarial parasite plastid, 96 hour incubation
Settings: P. falciparum luciferase reporter growth; series mostly up to 28.7 µM
Outline: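 Compounds incubated with erythrocytes infected by luciferase-expressing P. falciparum (2% hematocrit, 0.05% parasitemia final) for 96 hours, 37 C in 5% CO2. Growth inhibition scored as decreased luciferase luminescence.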
With `Fc1ccccc1/C=N/N1CCN(Cc2ccccc2Cl)CC1` the Potency was “inactive”. With `COc1ccc(Cl)cc1Nc1nc(NCCO)nc(N2CCCC2)n1` the Potency was “inactive”. With `COc1ccc(N2C(=O)CC(NCC#N)C2=O)cc1` (configuration not stated) the Potency was “inactive”. For `O=C(CC1C(=O)NCCN1C(=O)c1ccc([N+](=O)[O-])cc1)Nc1cccc(Cl)c1` (configuration not stated), the Potency was inconclusive: 9.28 µM [inhibitor, partial curve]. With `CCOCCn1c(-c2ccccc2)nc2ccccc21` the Potency was “inactive”. For `CC(C)(C)C(=O)OCOC(=O)[C@@H]1N2C(=O)[C@@H](NC(=O)[C@H](N)c3ccccc3)[C@H]2SC1(C)C`, the Potency was “inactive”. With `O=C(NCCCCCc1nc2ccccc2[nH]1)c1ccccc1Cl` the Potency was inconclusive: 3.29 µM [inhibitor, partial curve, poor fit]. With `O=C(NCc1cccc(CNC(=O)C(=O)NCc2ccco2)c1)C(=O)NCc1ccco1` the Potency was inconclusive: 0.0738 µM [inhibitor, full curve, poor fit]. In the case of `CCc1ccc(OCC(=O)Nc2nnc(C3CCCC3)s2)cc1`, the Potency is reported as “inactive”. In the case of `Cc1ccc(S(=O)(=O)c2ccc(NN)cc2)cc1`, the Potency is reported as inconclusive: 11.7 µM [inhibitor, partial curve, poor fit]. With `O=C(NC1CCCCCC1)c1ccco1` the Potency was inconclusive: 18.5 µM [inhibitor, single point]. In the case of `CC(C)CN(C(=O)CCC(=O)OCc1ccc(Cl)cc1Cl)c1c(N)n(CC(C)C)c(=O)[nH]c1=O`, the Potency is reported as inconclusive: 10.4 µM [inhibitor, partial curve]. In the case of `Cc1cc(=O)oc2cc(NC(=O)C3COc4ccccc4O3)ccc12` (configuration not stated), the Potency is reported as “inactive”. In the case of `COc1ccc(Oc2coc3cc(OC(=O)/C=C/c4ccc(F)cc4)ccc3c2=O)cc1`, the Potency is reported as active: 4.15 µM. For `Cn1cnc([N+](=O)[O-])c1Nc1ccc(O)cc1`, the Potency was inconclusive: 0.0185 µM [inhibitor, full curve, poor fit]. In the case of `Cc1ccc(S(=O)(=O)N2CCCN(C(=O)OC(C)(C)C)CC2)cc1`, the Potency is reported as “inactive”. For `COc1ccc([C@@H]2[C@@H]3C(=O)N(C(C)(C)C)C(=O)[C@@H]3[C@]3(C)C(=O)N(c4cccc(Br)c4)C(=O)N23)cc1`, the Potency was inconclusive: 14.7 µM [inhibitor, single point]. In the case of `Cc1ccc2ncnc(Nc3cccc(C(=O)O)c3)c2c1`, the Potency is reported as inconclusive: 18.5 µM [inhibitor, single point]. With `Cc1ccc(C(=O)NCN2CCN(c3ccccc3)CC2)cc1` the Potency was “inactive”. With `COc1ccc(NC2=CC(c3ccc(OC)cc3)N(c3ccc(OC)cc3)C2=O)cc1` (configuration not stated) the Potency was “inactive”. In the case of `COCCCN1CC(=O)N2C(c3ccc(OC)c(OC)c3)c3[nH]c4ccccc4c3C[C@H]2C1=O` (some centres not stated), the Potency is reported as inconclusive: 1.47 µM [inhibitor, full curve]. With `CN1C2CCC1/C(=C\c1ccccc1)C(=O)/C2=C\c1ccccc1` the Potency was inconclusive: 4.65 µM [inhibitor, partial curve, poor fit]. For `CC1(C(=O)NCc2ccc(F)cc2)Oc2ccccc2NC1=O` (configuration not stated), the Potency was “inactive”. For `O=c1cc(-c2ccccc2)cc(-c2ccccc2)n1O`, the Potency was inconclusive: 1.85 µM [inhibitor, full curve]. With `COc1ccc(CCN(C)C(=O)Cc2ccc(-c3ccccc3)cc2)cc1OC` the Potency was inconclusive: 10.4 µM [inhibitor, single point]. For `Cc1cc(C)c(C(=O)N2CCCC(CNS(=O)(=O)c3cccs3)C2)o1` (configuration not stated), the Potency was “inactive”. With `CCOC(=O)C1(CCOc2ccccc2)CCN(Cc2cc(OC)cc(OC)c2)CC1` the Potency was “inactive”. With `OCC1CCCCN1CC(O)COC(c1ccc(F)cc1)c1ccc(F)cc1` (configuration not stated) the Potency was inconclusive: 18.5 µM [inhibitor, single point]. In the case of `Brc1ccc(-c2cnnc(N3CCCC3)n2)cc1`, the Potency is reported as inconclusive: 11.7 µM [inhibitor, single point]. In the case of `COc1ccc(-c2cc(C)nc(SCC(=O)c3cccc([N+](=O)[O-])c3)n2)cc1`, the Potency is reported as inconclusive: 11.7 µM [inhibitor, single point]. With `Cc1cc(=O)[nH]c(Nc2cccc(F)c2)n1` the Potency was “inactive”. With `CCCCOC(=O)Nc1ccc(C(N)=O)cc1` the Potency was “inactive”. With `Cc1ccccc1NC(=O)CSC1=NCCN1` the Potency was inconclusive: 14.7 µM [inhibitor, single point]. In the case of `Cc1ccc(C(=O)NNC(=O)CCCCC(=O)NNC(=O)c2ccc(C)cc2)cc1`, the Potency is reported as inconclusive: 11.7 µM [inhibitor, single point]. In the case of `CCOc1ccc(C2C=C(c3ccccc3)Nc3ncnn32)cc1` (configuration not stated), the Potency is reported as inconclusive: 18.5 µM [inhibitor, single point]. For `Cc1ccc(NC(=O)[C@H](Cc2ccccc2)NC(=O)[C@@H]2Cc3ccccc3CN2)c(C)c1`, the Potency was inconclusive: 8.28 µM [inhibitor, partial curve, poor fit]. In the case of `Cc1ccc(F)cc1NC(=O)C12CC3CC(C1)CC(n1cnc([N+](=O)[O-])n1)(C3)C2`, the Potency is reported as “inactive”. In the case of `CCOCc1cc(CN2CCC(CCC(=O)NC3CC3)CC2)ccc1OC`, the Potency is reported as active: 9.28 µM. For `Cc1ccc(-c2ccc(=O)n(Cc3c(F)cccc3Cl)n2)cc1`, the Potency was “inactive”. For `Cc1cc(N2CCOCC2)n2cc(-c3ccc(F)cc3)nc2n1`, the Potency was inconclusive: 9.28 µM [inhibitor, single point]. In the case of `O=C(CSc1nnc(-c2ccco2)n1CC1CCCO1)c1ccccc1` (configuration not stated), the Potency is reported as inconclusive: 10.4 µM [inhibitor, partial curve, poor fit]. For `CC(C)(C)C(=O)CSc1ccc(S(=O)(=O)N2CCN(Cc3ccccc3)CC2)cn1`, the Potency was inconclusive: 2.08 µM [inhibitor, partial curve, poor fit]. For `COc1ccc2[nH]c(=O)c(CN(Cc3cccs3)C(=S)NCC3CCCO3)cc2c1` (configuration not stated), the Potency was inconclusive: 11.7 µM [inhibitor, single point]. With `Cc1cc(N)ccc1S(C)(=O)=O` the Potency was “inactive”. For `O=C(Cn1nc(C(=O)O)c2ccccc2c1=O)Nc1cc(Cl)cc(Cl)c1`, the Potency was “inactive”. In the case of `Cc1ccc(C(=O)N2CCN(c3ccccn3)CC2)cc1`, the Potency is reported as “inactive”. For `Cc1ccc(NC(=O)c2ccc(C)c(S(=O)(=O)N3CCOCC3)c2)nc1`, the Potency was “inactive”. In the case of `CSc1ccc(C(=O)C2CCCN(C)C2)cc1` (configuration not stated), the Potency is reported as inconclusive: 18.5 µM [inhibitor, single point]. In the case of `Cc1ccnc(NC(=O)Nc2ccc3c(c2)OCO3)c1`, the Potency is reported as “inactive”. In the case of `CCOC(=O)C1CCN(C(=O)CCS(=O)(=O)c2ccc3c(c2)CC(C)N3C(=O)CC)CC1` (configuration not stated), the Potency is reported as inconclusive: 18.5 µM [inhibitor, single point]. For `CCC(C)(C)C1CCc2[nH]nc(C(=O)NCc3ccc(Cl)cc3)c2C1` (configuration not stated), the Potency was inconclusive: 0.0059 µM [inhibitor, full curve, poor fit]. For `COc1cccc(NC(=O)C2CCN(C(=O)NC3CCCCC3)CC2)c1`, the Potency was inconclusive: 6.57 µM [inhibitor, single point]. For `COC(=O)CN(C)C(=O)c1ccccc1OC1CCN(S(C)(=O)=O)CC1`, the Potency was active: 13.1 µM. For `COc1cc(OC)cc(C(=O)NNC(=O)CCNS(=O)(=O)c2ccc(C)c(C)c2)c1`, the Potency was “inactive”. In the case of `CCOC(=O)C1=C(C)Nc2ncnn2C1c1cccs1` (configuration not stated), the Potency is reported as inconclusive: 18.5 µM [inhibitor, single point]. In the case of `COC(=O)C(C)Sc1nc2c(cnn2-c2ccccc2)c(=O)[nH]1` (configuration not stated), the Potency is reported as inconclusive: 0.0928 µM [inhibitor, partial curve, poor fit]. In the case of `COc1ccc(NS(=O)(=O)c2ccc(N3CCOCC3)c(NC(=O)c3ccco3)c2)cc1`, the Potency is reported as “inactive”. In the case of `Cc1nnc2ccc(-c3ccc(NC(=O)c4cccnc4Cl)cc3)nn12`, the Potency is reported as inconclusive: 10.4 µM [inhibitor, single point]. With `COc1ccc(-n2c(-c3ccc(Cl)cc3)c[n+]3c2CCCCC3)cc1` the Potency was active: 0.465 µM. In the case of `COC(=O)C(O)(c1c(C)[nH]c2ccccc12)C(F)(F)F` (configuration not stated), the Potency is reported as inconclusive: 10.4 µM [inhibitor, single point]. With `O=S(=O)(c1cccs1)N1CCN(S(=O)(=O)c2cccs2)CC1` the Potency was inconclusive: 0.928 µM [inhibitor, full curve, poor fit]. For `COC(=O)c1ccc(CNC(=O)c2ccc(S(=O)(=O)N3CCCC(C)C3)cc2)cc1` (configuration not stated), the Potency was inconclusive: 9.28 µM [inhibitor, partial curve, poor fit]. In the case of `Cc1cccc(C(=O)Nc2ccc(O)cc2C(=O)O)c1`, the Potency is reported as inconclusive: 10.4 µM [inhibitor, single point]. In the case of `CCSc1nnc(SCC(=O)c2c(N)n(C)c(=O)n(C)c2=O)s1`, the Potency is reported as active: 4.15 µM. For `Cc1cc(-c2ccccc2)nc(N(C)NC(=O)C(C)(C)C)c1S(C)(=O)=O`, the Potency was inconclusive: 2.08 µM [inhibitor, full curve, poor fit]. In the case of `CC(C)(C)n1nnnc1C(c1cccs1)N1CCN(C(=O)c2ccco2)CC1` (configuration not stated), the Potency is reported as “inactive”. For `COc1ccc(S(=O)(=O)N2CCC(C(=O)N(C)Cc3ccc(C)o3)CC2)cc1OC`, the Potency was inconclusive: 1.47 µM [inhibitor, full curve, poor fit]. In the case of `Cc1ccccc1N/C(=C(/C(Cl)=C(Cl)Cl)[N+](=O)[O-])n1nnc2ccccc21`, the Potency is reported as inconclusive: 0.233 µM [inhibitor, partial curve, poor fit]. For `Cc1ccc(OCC(=O)NCCCNC(=O)c2cccnc2)cc1C`, the Potency was “inactive”. In the case of `C=COCCNC(=S)N1CCOCCOCCN(C(=S)NCCOC=C)CCOCCOCC1`, the Potency is reported as inconclusive: 18.5 µM [inhibitor, single point]. In the case of `CCN(CC)c1ccc(/C=N/NC(=O)c2cc(C)nc3ccccc23)cc1`, the Potency is reported as “inactive”. For `CC(=O)c1c(O)n(C2CCCCCC2)c(=O)[nH]c1=O`, the Potency was inconclusive: 11.7 µM [inhibitor, single point].
